# Results published in paper PMC5442467.
# Sequences of proteins named here, by UniProt entry; tags and fusion partners are left off. A change or cut given only in a name is not applied to a line headed by its entry.
# UniProt Q01705: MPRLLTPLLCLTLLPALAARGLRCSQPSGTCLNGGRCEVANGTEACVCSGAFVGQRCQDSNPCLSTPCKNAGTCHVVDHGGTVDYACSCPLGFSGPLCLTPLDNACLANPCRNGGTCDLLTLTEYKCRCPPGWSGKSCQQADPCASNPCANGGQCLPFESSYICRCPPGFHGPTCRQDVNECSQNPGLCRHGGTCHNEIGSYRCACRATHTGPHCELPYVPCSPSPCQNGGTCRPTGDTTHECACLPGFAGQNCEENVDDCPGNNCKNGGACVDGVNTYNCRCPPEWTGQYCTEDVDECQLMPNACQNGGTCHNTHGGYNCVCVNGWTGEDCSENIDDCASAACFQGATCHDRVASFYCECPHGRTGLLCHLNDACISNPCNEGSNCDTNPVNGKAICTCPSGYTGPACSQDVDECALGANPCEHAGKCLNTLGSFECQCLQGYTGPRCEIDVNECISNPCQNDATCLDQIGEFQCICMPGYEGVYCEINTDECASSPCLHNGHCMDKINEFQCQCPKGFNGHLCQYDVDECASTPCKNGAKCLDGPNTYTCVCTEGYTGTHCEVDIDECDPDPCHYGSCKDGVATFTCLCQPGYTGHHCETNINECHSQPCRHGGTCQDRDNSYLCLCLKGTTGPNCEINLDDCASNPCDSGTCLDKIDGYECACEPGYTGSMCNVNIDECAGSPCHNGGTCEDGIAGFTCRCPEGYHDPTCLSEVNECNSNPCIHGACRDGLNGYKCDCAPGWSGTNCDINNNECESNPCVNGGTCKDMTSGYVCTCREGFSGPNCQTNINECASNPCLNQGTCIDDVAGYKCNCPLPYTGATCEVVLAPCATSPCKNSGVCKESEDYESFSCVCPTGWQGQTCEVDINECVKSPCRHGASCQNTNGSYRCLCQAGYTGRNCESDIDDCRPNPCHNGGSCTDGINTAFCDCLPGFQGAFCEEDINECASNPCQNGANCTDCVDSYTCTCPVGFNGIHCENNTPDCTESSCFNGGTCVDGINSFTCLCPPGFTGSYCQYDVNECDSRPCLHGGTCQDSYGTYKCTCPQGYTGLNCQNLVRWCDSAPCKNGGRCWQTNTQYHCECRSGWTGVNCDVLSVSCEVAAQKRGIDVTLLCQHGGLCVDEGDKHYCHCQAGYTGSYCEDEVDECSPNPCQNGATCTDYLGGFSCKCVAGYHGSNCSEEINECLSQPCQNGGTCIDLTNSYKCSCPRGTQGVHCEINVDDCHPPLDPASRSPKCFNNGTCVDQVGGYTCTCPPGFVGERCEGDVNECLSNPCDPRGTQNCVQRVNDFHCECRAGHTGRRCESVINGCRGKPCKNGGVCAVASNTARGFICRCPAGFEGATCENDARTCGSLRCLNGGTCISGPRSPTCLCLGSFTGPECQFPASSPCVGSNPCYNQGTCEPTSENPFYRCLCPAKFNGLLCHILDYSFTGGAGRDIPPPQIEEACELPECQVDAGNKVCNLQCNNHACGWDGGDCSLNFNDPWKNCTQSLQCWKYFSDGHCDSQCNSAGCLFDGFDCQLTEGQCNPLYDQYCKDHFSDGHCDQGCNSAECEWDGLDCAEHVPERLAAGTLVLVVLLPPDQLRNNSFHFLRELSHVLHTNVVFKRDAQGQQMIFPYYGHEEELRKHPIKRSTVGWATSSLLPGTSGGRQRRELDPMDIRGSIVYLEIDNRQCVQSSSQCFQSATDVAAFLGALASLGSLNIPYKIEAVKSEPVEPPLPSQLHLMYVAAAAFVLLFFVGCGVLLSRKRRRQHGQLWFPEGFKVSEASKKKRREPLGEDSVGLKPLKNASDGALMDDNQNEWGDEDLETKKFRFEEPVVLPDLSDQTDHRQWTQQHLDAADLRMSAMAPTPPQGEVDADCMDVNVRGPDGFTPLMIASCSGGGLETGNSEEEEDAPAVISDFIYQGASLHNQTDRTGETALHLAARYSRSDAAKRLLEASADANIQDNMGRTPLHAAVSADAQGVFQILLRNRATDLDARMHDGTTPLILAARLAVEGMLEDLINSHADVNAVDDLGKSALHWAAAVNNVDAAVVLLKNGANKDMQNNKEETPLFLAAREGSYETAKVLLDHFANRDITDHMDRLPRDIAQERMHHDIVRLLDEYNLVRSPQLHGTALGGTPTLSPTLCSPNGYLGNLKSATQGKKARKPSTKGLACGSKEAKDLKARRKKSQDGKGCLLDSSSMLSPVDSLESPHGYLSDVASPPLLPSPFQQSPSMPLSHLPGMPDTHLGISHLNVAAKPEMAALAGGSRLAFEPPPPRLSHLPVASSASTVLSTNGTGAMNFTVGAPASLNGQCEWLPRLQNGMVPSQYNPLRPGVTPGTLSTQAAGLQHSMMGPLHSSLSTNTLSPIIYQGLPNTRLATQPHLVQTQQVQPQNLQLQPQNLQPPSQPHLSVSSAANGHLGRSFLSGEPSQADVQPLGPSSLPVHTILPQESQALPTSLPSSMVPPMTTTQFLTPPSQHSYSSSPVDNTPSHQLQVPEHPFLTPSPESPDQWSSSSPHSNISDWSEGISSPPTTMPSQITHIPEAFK
# UniProt P05787: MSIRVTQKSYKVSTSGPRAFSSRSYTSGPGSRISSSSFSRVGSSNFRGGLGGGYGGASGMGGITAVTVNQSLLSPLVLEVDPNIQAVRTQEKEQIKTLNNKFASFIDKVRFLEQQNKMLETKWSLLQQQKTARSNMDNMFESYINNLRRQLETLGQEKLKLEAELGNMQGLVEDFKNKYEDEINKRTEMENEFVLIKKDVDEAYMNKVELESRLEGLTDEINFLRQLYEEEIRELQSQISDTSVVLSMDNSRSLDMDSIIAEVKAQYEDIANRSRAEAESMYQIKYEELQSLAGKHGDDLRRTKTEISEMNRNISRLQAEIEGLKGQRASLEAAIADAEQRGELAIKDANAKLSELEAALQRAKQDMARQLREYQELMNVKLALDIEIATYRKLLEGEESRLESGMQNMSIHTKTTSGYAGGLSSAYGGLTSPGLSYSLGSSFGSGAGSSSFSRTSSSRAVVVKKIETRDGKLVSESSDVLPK
# UniProt P05783: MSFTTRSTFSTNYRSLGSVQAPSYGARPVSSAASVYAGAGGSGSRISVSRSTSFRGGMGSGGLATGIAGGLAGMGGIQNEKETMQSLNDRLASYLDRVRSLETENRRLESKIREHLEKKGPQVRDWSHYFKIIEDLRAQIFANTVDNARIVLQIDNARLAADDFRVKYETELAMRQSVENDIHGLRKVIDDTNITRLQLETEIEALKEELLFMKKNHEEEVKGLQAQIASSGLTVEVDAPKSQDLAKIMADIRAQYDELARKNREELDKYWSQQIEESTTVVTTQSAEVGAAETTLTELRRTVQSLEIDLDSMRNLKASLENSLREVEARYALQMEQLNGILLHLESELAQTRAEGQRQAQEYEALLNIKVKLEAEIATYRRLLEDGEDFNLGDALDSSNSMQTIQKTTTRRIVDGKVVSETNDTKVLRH
# UniProt P11679: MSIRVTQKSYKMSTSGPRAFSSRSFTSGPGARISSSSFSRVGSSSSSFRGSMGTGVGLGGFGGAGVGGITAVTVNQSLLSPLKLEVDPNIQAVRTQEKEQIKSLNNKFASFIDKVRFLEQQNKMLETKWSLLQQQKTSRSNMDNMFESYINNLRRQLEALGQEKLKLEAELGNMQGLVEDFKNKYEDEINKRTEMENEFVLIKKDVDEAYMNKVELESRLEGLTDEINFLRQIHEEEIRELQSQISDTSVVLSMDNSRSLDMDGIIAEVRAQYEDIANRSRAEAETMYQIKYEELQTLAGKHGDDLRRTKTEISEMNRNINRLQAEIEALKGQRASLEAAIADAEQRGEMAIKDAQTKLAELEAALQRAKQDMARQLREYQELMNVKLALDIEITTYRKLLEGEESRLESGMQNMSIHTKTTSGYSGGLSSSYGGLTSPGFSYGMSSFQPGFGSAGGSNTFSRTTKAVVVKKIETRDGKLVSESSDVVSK
# UniProt P05784: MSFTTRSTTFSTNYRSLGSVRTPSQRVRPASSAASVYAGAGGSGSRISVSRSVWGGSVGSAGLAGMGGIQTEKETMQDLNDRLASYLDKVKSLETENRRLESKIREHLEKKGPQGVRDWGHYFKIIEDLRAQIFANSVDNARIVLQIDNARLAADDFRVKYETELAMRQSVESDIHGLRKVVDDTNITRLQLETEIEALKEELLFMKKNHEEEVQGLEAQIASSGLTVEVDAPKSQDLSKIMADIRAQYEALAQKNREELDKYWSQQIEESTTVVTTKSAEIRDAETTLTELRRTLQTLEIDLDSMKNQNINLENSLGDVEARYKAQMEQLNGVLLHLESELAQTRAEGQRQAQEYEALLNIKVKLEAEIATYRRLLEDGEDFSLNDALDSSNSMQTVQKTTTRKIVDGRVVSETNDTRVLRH
# These are yes or no findings as the source states them, for the method shown. Binding seen in cells or lysates may run through a third protein. Some results given as binding are weak or reduced against the parent protein; the word gives no strength.
# Experiments:
# [1] = target: full-length Notch1 receptor (FLN) overexpressed in MEFvim-/- cells (UniProt Q01705); test: co-IP; MEFvim-/- cells transfected with Notch1 constructs with and without K8/K18, lysed 24 h after transfection; goat anti-full length Notch1 c-20 antibody (all Notch1 forms) and protein-G/Sepharose; immunoblot for K8 and K18; no-antibody control
# [2] = target: K8/K18 endogenous in HEK 293 cells (human (endogenous in HEK 293)) (UniProt P05787+P05783); test: co-IP; HEK FLN 293 cell lysate; K18 antibody and protein-G/Sepharose; immunoblot for FLN
# [3] = target: K8/K18 (keratin 8 / keratin 18), endogenous in mouse colon epithelium (mouse (endogenous in colon epithelium)) (UniProt P11679+P05784); test: co-IP; mouse proximal and distal colon epithelium lysate (25 mM Hepes pH 8.0, 100 mM NaCl, 5 mM EDTA, 0.5% Triton X-100), precleared; K8/K18 antibodies and protein-G/Sepharose; immunoblot for NICD; no-antibody control
substance,measurement,setting,value
human K8/K18 overexpressed in MEFvim-/- cells (from UniProt P05787 1-483; P05783 1-430) (complex),binding,[1],binds
full-length Notch1 receptor (FLN) overexpressed in HEK FLN 293 cells (from UniProt Q01705 19-2531),binding,[2],binds
"Notch1 intracellular domain (NICD), endogenous in mouse colon epithelium (from UniProt Q01705 1744-2531) (domain or fragment)",binding,[3],binds
